{"source": "patent US11794009B2", "about": "“Devices, systems and methods for treating urological and gastrointestinal disorders by electrical stimulation of the foot” (priority 2014, dated 2023)", "origin": "cited, not measured here", "system": "irritation induced bladder overactivity", "details": "combined with foot stimulation, cats; cited from earlier work", "data": [{"smiles": "COc1cccc(C2(O)CCCCC2CN(C)C)c1", "note": "(stereo not shown) [Tramadol, tramadol]", "values": [{"measurement": "effect of tramadol on foot inhibition", "result": "synergistically enhance foot inhibition"}]}]}
